# Reference: the supplement of paper PMC10849652
# The chains behind the UniProt entries cited, without tags or fusion partners. Where a name states a change or a piece, a line headed by the entry shows the natural chain unless it says otherwise.
# UniProt Q03169: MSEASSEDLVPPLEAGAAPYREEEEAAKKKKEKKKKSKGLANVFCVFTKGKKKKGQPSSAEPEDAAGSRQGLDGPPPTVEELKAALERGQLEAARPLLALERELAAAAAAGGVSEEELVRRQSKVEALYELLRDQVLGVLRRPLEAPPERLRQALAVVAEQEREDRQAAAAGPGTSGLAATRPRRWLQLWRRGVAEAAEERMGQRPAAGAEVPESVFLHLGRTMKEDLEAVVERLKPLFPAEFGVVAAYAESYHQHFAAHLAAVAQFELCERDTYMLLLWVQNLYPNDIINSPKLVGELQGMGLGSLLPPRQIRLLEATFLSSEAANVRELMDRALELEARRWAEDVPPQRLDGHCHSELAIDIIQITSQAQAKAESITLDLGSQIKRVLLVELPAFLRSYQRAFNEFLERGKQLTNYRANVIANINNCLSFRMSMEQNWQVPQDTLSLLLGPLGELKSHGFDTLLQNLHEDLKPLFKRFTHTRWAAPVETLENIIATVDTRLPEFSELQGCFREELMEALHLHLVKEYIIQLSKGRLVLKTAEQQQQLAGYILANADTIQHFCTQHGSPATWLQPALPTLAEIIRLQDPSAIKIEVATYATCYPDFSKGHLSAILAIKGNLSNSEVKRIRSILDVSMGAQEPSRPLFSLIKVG
# UniProt O14657: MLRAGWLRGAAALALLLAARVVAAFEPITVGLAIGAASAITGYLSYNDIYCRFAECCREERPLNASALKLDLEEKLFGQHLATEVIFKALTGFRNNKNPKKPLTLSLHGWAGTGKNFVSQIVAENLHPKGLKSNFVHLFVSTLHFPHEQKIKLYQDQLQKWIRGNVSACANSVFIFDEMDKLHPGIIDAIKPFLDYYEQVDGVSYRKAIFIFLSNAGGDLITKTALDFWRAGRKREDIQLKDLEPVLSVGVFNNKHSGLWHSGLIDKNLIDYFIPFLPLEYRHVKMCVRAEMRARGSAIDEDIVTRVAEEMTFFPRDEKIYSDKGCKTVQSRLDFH
# UniProt A0PJW6: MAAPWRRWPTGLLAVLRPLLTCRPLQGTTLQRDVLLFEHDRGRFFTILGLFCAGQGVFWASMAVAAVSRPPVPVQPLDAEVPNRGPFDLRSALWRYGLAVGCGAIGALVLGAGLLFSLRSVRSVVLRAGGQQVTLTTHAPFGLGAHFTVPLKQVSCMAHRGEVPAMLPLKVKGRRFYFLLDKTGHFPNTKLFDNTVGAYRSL
# UniProt Q8IY95: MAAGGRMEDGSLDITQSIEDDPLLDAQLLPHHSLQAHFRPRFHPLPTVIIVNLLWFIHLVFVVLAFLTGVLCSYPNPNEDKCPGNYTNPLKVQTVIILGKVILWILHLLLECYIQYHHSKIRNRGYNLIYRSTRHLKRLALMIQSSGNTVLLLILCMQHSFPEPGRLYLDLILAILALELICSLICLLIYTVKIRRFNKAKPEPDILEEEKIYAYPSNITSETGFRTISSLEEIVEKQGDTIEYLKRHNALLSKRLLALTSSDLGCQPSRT
# UniProt O94842: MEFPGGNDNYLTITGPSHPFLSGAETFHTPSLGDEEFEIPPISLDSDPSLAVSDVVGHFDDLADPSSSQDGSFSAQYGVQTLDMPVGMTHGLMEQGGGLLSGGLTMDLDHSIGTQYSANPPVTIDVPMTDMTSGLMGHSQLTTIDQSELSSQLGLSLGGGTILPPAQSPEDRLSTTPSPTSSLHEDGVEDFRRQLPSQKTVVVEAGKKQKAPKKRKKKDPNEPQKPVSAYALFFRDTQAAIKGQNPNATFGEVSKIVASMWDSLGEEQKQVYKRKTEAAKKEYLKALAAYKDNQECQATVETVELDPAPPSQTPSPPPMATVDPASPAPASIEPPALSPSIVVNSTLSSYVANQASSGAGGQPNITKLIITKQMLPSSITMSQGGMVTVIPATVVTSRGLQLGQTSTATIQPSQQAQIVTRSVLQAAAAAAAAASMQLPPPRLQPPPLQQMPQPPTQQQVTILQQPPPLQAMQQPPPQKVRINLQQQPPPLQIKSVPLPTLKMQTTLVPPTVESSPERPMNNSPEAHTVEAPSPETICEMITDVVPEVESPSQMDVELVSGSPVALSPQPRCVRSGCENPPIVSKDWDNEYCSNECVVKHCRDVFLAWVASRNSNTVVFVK
# UniProt P82094: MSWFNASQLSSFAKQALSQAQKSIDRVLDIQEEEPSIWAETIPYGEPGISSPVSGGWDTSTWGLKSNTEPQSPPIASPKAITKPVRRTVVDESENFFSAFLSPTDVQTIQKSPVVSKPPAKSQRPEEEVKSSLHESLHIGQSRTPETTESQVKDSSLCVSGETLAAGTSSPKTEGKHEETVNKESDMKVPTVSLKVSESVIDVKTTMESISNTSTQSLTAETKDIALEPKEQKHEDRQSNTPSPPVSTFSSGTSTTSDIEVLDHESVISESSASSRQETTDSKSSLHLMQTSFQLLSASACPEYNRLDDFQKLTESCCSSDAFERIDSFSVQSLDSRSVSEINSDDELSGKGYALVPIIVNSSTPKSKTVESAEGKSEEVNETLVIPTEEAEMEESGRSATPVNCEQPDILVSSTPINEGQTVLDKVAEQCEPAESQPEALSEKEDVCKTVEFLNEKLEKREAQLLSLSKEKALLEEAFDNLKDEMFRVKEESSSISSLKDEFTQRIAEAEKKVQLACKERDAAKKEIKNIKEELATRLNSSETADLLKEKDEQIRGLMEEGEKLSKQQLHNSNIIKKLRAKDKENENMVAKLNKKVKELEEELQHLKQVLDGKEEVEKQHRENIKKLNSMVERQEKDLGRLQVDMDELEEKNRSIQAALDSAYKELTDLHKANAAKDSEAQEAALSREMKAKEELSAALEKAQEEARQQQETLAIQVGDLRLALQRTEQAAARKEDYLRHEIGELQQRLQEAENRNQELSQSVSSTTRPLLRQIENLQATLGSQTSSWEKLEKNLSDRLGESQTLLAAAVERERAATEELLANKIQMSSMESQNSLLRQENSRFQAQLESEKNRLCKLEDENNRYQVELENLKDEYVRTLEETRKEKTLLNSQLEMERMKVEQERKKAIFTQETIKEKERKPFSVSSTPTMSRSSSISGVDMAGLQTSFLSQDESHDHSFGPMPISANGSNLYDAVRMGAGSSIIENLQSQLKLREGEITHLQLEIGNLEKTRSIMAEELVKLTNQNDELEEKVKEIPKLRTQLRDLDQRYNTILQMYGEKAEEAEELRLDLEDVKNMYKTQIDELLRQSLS
# UniProt O95379: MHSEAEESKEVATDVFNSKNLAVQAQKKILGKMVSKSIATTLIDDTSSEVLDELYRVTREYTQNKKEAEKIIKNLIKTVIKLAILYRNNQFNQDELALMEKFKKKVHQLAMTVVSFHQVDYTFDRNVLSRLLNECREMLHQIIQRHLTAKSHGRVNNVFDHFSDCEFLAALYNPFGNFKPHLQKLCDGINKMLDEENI
# UniProt Q6ZXV5: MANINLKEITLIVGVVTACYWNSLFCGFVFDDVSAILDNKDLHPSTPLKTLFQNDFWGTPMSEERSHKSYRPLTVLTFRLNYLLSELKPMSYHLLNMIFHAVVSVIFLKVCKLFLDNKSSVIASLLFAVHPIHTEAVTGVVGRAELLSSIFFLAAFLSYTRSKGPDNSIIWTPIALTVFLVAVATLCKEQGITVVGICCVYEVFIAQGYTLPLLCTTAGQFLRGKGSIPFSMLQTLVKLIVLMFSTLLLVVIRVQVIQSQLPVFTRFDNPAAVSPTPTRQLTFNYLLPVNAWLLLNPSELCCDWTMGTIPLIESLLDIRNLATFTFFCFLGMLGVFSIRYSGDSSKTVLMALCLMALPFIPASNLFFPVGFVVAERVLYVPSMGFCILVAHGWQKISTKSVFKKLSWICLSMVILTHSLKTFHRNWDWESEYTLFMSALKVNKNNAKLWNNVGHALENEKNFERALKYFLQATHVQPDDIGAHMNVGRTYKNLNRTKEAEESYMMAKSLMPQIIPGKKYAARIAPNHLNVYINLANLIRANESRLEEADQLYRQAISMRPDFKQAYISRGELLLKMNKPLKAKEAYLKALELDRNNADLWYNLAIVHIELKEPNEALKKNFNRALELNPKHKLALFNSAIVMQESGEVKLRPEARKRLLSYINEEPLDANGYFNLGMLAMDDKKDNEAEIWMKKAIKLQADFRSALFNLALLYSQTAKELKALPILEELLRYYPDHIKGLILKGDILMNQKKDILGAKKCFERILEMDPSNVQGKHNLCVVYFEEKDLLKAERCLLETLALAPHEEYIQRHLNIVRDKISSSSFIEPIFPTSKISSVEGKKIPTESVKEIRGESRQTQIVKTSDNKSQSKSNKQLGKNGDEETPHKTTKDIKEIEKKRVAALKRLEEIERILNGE
# UniProt Q59H18: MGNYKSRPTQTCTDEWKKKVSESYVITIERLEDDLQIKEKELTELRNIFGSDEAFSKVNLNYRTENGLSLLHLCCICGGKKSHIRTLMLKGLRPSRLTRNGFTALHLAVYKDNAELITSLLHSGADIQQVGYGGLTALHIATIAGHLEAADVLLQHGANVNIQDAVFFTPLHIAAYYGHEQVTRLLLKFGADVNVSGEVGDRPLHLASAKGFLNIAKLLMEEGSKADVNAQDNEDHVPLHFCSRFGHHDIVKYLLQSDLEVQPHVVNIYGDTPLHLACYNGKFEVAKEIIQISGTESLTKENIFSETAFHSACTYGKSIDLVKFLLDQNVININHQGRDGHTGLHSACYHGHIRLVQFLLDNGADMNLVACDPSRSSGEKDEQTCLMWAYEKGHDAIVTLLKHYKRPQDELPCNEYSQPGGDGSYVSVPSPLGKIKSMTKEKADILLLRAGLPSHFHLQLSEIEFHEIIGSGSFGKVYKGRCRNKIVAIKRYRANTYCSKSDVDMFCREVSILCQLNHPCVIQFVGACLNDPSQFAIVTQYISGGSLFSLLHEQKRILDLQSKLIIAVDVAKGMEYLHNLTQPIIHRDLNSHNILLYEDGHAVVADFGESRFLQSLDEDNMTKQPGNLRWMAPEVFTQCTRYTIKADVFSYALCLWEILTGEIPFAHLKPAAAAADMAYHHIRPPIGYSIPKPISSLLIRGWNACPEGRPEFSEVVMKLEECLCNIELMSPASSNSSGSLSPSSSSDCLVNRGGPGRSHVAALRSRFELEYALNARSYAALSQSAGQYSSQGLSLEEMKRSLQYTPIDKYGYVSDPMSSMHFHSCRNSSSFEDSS
# UniProt P67936, whole entry, looked up: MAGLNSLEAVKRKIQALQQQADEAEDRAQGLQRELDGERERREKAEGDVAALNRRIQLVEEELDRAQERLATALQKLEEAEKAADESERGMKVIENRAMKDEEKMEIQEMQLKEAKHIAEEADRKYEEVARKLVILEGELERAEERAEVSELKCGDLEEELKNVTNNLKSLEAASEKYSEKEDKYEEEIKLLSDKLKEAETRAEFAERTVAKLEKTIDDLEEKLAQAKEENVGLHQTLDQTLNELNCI
# UniProt Q8N4H5: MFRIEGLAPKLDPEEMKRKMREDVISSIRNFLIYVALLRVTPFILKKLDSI
# UniProt Q13625: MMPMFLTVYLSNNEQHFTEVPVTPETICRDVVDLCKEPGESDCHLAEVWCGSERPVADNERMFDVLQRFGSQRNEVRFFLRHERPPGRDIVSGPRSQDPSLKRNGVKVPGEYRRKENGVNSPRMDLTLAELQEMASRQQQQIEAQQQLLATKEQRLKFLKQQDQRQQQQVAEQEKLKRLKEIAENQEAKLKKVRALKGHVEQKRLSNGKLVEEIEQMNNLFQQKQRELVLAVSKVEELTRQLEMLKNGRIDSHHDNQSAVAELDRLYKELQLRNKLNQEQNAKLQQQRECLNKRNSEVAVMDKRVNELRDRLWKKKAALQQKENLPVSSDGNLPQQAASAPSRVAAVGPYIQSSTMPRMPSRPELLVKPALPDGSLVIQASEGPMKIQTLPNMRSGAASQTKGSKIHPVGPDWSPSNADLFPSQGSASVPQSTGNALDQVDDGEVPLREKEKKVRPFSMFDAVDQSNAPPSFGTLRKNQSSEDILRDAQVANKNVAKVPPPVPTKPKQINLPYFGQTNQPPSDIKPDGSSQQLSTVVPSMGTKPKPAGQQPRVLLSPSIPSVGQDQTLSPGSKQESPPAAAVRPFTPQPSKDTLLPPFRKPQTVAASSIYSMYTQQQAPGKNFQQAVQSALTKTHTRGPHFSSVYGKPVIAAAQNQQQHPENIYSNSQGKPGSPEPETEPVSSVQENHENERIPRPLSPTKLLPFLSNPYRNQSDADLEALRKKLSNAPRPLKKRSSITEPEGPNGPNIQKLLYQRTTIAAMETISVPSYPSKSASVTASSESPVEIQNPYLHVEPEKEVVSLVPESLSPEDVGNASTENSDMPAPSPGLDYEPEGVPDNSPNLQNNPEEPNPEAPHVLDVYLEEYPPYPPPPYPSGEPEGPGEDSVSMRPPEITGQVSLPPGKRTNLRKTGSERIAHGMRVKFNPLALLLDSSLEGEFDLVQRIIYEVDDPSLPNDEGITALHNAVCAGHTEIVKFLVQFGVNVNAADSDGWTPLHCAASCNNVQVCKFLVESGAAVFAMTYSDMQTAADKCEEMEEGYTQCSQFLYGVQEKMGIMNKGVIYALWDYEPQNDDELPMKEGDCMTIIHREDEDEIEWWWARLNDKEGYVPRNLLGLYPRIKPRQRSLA
# This is one part of the list.
# Columns and labels:
# Assay in all cases: log2 fold change, soluble protein after heating vs DMSO (PISA); higher = thermal stabilisation; K562 lysate, 10 uM; active = over 0.2 and 3.5 SD of the protein, either way, in both replicates (recomputed)
# [1] = compound: CCCS(=O)(=O)Nc1ccc(F)c(C(=O)c2c[nH]c3ncc(-c4ccc(Cl)cc4)cc23)c1F [vemurafenib]
# Outline: (§1)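 Dounce homogenisation of K562 pellets in PBS pH 7.4 with 1 mM MgCl2 produced a crude extract, used at 1 mg/mL protein. Exposure to 10 μM compound lasted 30 min, and aliquots were then heated for 3 min across 48°C-58°C, pooled and brought to 0.5% NP-40 at 4°C. The supernatant after 21,000xg for 90 min was quantified by TMTpro 16plex LC-MS/MS with channel sums equalised. Duplicate values are given as log-two fold change in thermal stability relative to solvent controls.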
# [2] = compound: CCCS(=O)(=O)Nc1ccc(F)c(C(=O)c2c[nH]c3ncc(Cl)cc23)c1F
# Outline: as §1
# [3] = compound: CCN(CCCOc1ccc2c(Nc3cc(CC(=O)Nc4cccc(F)c4)[nH]n3)ncnc2c1)CCOP(=O)(O)O [barasertib]
# Outline: as §1
# [4] = compound: CC[C@@H]1C(=O)N(C)c2cnc(Nc3ccc(C(=O)NC4CCN(C)CC4)cc3OC)nc2N1C1CCCC1
# Outline: as §1
# [5] = compound: CC[C@@H]1C(=O)N(C)c2cnc(Nc3ccc(C(=O)N[C@H]4CC[C@H](N5CCN(CC6CC6)CC5)CC4)cc3OC)nc2N1C(C)C [volasertib]
# Outline: as §1
# [6] = compound: CCn1c(C(=O)N(C2CC2)C2CC2)cc2c3c(ncn3C)c(Nc3cc(C)n(C)n3)nc21
# Outline: as §1
# [7] = compound: CCn1cc(-c2ccnc3[nH]c(-c4cccc(CN(C)C)c4)cc23)c(-c2ccc(NC(=O)N(C)C)cc2)n1
# Outline: as §1
# [8] = compound: CN1CCC(CNc2ccc3ncc(-c4cccc(OC(F)(F)F)c4)n3n2)CC1
# Outline: as §1
# [9] = compound: CN1CCN(CCOc2cc(OC3CCOCC3)c3c(Nc4c(Cl)ccc5c4OCO5)ncnc3c2)CC1 [saracatinib]
# Outline: as §1
# [10] = compound: CN1CCN(c2nc(C3=C(c4c[nH]c5ccccc45)C(=O)NC3=O)c3ccccc3n2)CC1 [sotrastaurin]
# Outline: as §1
# [11] = compound: CN1CC[C@H](c2c(O)cc(O)c3c(=O)cc(-c4ccccc4Cl)oc23)[C@H](O)C1 [alvocidib]
# Outline: as §1
# [12] = compound: CN1CCc2c(c3ccccc3n2Cc2ccc(C(=O)NO)cc2)C1 [Tubastatin A]
# Outline: as §1
# [13] = compound: CNC(=O)C1=CC=CC=C1NC2=NC(=NC=C2Cl)NC3=C(C=C(C=C3)N4CCOCC4)OC
# Outline: as §1
# [14] = compound: CNC(=O)c1ccc(Nc2ncc(C(F)(F)F)c(NCc3nccnc3N(C)S(C)(=O)=O)n2)cc1 [defactinib]
# Outline: as §1
# [15] = compound: CNc1nc(-c2ccc3c(N)n[nH]c3c2)cc(N2C[C@@H](C(=O)NC3CCCCC3)CC[C@H]2C)n1
# Outline: as §1
# [16] = compound: COC(=O)N[C@@H](C)CNc1nccc(-c2cn(C(C)C)nc2-c2cc(Cl)cc(NS(C)(=O)=O)c2F)n1 [encorafenib]
# Outline: as §1
# [17] = compound: COC(=O)[C@H](CCSC)NC(=O)C1=C(C=C(C=C1)NC[C@H](CS)N)C2=CC=CC=C2
# Outline: as §1
# [18] = compound: COc1cc(Nc2ncc3c(n2)-c2ccc(Cl)cc2C(c2c(F)cccc2OC)=NC3)ccc1C(=O)O [alisertib]
# Outline: as §1
# [19] = compound: COc1cc2nc(-c3cc(F)ccc3O)nc(N[C@@H]3CNC[C@H]3C(C)(C)O)c2cc1OC
# Outline: as §1
# [20] = compound: COc1cc2ncnc(Nc3ccc(F)c(Cl)c3)c2cc1OCCCN1CCOCC1 [gefitinib]
# Outline: as §1
Target,log2 fold change [1],log2 fold change [2],log2 fold change [3],log2 fold change [4],log2 fold change [5],log2 fold change [6],log2 fold change [7],log2 fold change [8],log2 fold change [9],log2 fold change [10],log2 fold change [11],log2 fold change [12],log2 fold change [13],log2 fold change [14],log2 fold change [15],log2 fold change [16],log2 fold change [17],log2 fold change [18],log2 fold change [19],log2 fold change [20]
TNFAIP2 (UniProt Q03169),inactive: 0.093,inactive: 0.009,inactive: 0.071,inactive: 0.257,inactive: 0.035,inactive: -0.221,inactive: -0.222,inactive: 0.047,inactive: -0.018,inactive: 0.002,inactive: -0.034,inactive: 0.166,inactive: -0.005,inactive: -0.014,inactive: 0.176,inactive: -0.094,inactive: 0.118,inactive: -0.031,inactive: 0.174,inactive: 0.053
TPM1 (UniProt H7BYY1),inactive: -0.001,inactive: -0.024,inactive: -0.031,inactive: 0.052,inactive: 0.043,inactive: -0.003,inactive: 0.092,active: -0.205,inactive: 0.009,inactive: 0.015,inactive: 0.027,inactive: 0.092,inactive: 0.007,inactive: 0,inactive: 0.022,inactive: 0.056,inactive: -0.023,inactive: -0.048,inactive: -0.04,inactive: 0.076
TOR1B (UniProt O14657),inactive: -0.02,inactive: 0.021,inactive: 0.032,inactive: -0.175,inactive: 0.012,inactive: -0.03,inactive: -0.04,inactive: 0.053,inactive: 0.01,inactive: 0.076,inactive: -0.006,inactive: -0.025,inactive: -0.001,inactive: 0.048,inactive: -0.099,inactive: 0.031,inactive: 0.032,inactive: -0.022,inactive: 0.015,inactive: 0.015
TMEM223 (UniProt A0PJW6),inactive: 0.133,inactive: -0.09,inactive: 0.003,inactive: -0.236,inactive: 0.137,inactive: 0.228,inactive: -0.049,inactive: -0.106,inactive: 0.039,inactive: 0.044,inactive: 0.046,inactive: -0.198,inactive: -0.006,inactive: 0.045,inactive: -0.166,inactive: 0.063,inactive: -0.219,inactive: 0.002,inactive: -0.097,inactive: 0.068
TOE1 (UniProt Q96GM8),inactive: 0.052,inactive: 0.018,inactive: -0.053,inactive: -0.051,inactive: -0.031,inactive: -0.042,inactive: -0.022,inactive: -0.005,inactive: -0.029,inactive: 0.007,inactive: -0.01,inactive: -0.136,inactive: 0.027,inactive: 0.019,inactive: -0.044,inactive: -0.034,inactive: 0.165,inactive: -0.041,inactive: -0.011,inactive: -0.047
TMEM192 (UniProt Q8IY95),inactive: 0.094,inactive: 0.003,inactive: 0.006,inactive: 0.029,inactive: 0.004,inactive: -0.018,inactive: -0.003,inactive: 0.011,inactive: 0.009,inactive: 0.062,inactive: -0.007,inactive: -0.044,inactive: -0.047,inactive: -0.063,inactive: -0.004,inactive: -0.034,inactive: -0.036,inactive: -0.016,inactive: -0.024,inactive: 0.036
TOX4 (UniProt O94842),inactive: -0.019,inactive: 0.005,inactive: 0.017,inactive: 0.06,inactive: -0.027,inactive: -0.018,inactive: -0.235,inactive: 0.147,inactive: 0.041,inactive: 0.005,inactive: -0.16,inactive: -0.006,inactive: 0.027,inactive: 0.025,inactive: -0.022,inactive: -0.011,inactive: -0.082,inactive: 0.028,inactive: -0.013,inactive: -0.016
TMF1 isoform 2 (UniProt P82094),inactive: 0.01,inactive: 0.023,inactive: 0.01,inactive: 0.076,inactive: -0.01,inactive: -0.015,inactive: -0.028,inactive: 0.019,inactive: 0.01,inactive: 0.001,inactive: -0.022,inactive: 0.032,inactive: 0.021,inactive: 0.033,inactive: 0.019,inactive: 0.079,inactive: -0.062,inactive: 0.024,inactive: 0.026,inactive: 0.022
TNFAIP8 isoform 4 (UniProt O95379),inactive: -0.013,inactive: -0.015,inactive: 0.015,inactive: 0,inactive: 0.015,inactive: 0.046,inactive: 0.007,inactive: -0.03,inactive: 0.038,inactive: 0.019,inactive: -0.058,inactive: 0.022,inactive: 0.005,inactive: -0.079,inactive: -0.068,inactive: -0.045,inactive: -0.076,inactive: -0.065,inactive: 0.014,inactive: 0.013
TMTC3 (UniProt Q6ZXV5),inactive: -0.042,inactive: -0.021,inactive: 0.056,inactive: -0.029,inactive: -0.021,inactive: 0.045,inactive: 0.253,inactive: -0.045,inactive: -0.011,inactive: 0.037,inactive: 0.011,inactive: -0.011,inactive: 0.009,inactive: 0.03,inactive: 0.027,inactive: -0.025,inactive: 0.006,inactive: -0.081,inactive: -0.011,inactive: -0.027
TNNI3K isoform 1 (UniProt Q59H18),inactive: 0.019,inactive: 0.007,inactive: -0.028,inactive: 0.014,inactive: -0.033,inactive: -0.004,inactive: -0.034,inactive: -0.029,inactive: -0.006,inactive: -0.018,inactive: 0.001,inactive: -0.148,inactive: -0.129,inactive: 0,inactive: 0.056,inactive: -0.062,inactive: 0.136,inactive: 0.014,inactive: 0.009,inactive: -0.047
TPM4 (UniProt P67936),inactive: -0.025,inactive: 0.009,inactive: 0.047,inactive: 0.125,inactive: 0.055,inactive: 0.018,inactive: 0.037,inactive: -0.007,inactive: 0.002,inactive: 0.013,inactive: -0.016,inactive: 0.074,inactive: -0.021,inactive: 0.019,inactive: 0.022,inactive: 0.028,inactive: -0.028,inactive: -0.105,inactive: 0.012,inactive: 0.033
TOMM5 (UniProt Q8N4H5),inactive: -0.012,inactive: -0.045,inactive: 0.075,inactive: 0.166,inactive: 0.05,inactive: 0.032,inactive: 0.128,inactive: -0.147,inactive: -0.038,inactive: -0.024,inactive: 0.272,inactive: -0.124,inactive: -0.024,inactive: 0.227,inactive: 0.048,inactive: -0.013,inactive: -0.036,inactive: -0.11,inactive: -0.108,inactive: -0.184
TP53BP2 isoform 3 (UniProt Q13625),inactive: 0.079,inactive: 0.007,inactive: 0.06,inactive: 0.054,inactive: -0.054,inactive: 0.02,inactive: 0.059,inactive: -0.025,inactive: 0.018,inactive: 0.022,inactive: 0.047,inactive: -0.032,inactive: 0.038,inactive: -0.006,inactive: -0.018,inactive: 0.007,inactive: 0.025,inactive: 0.007,inactive: -0.02,inactive: 0.076
TPD52L1 (UniProt Q16890),inactive: -0.017,inactive: -0.005,inactive: 0.027,inactive: 0.062,inactive: 0.043,inactive: 0.016,inactive: 0.048,inactive: 0.089,inactive: 0.033,inactive: -0.045,inactive: -0.016,inactive: 0.072,inactive: -0.017,inactive: 0.038,inactive: 0.021,inactive: 0.031,inactive: 0.032,inactive: 0.002,inactive: 0.077,inactive: 0.011
